Experimental findings from article PMC10742089 are described below.

No constants are given. Whether binding was seen depends on the method and setting. Binding seen in cells or lysates may run through a third protein. A yes stands for co-enrichment or nearness to the bait. Other partners may have been found.

The target of the experiment is mEGFP-iso6 (FMRP nuclear isoform iso6 fused to GFP) (human) (UniProt Q06787). Nature of the experiment: affinity purification with mass spectrometry; first screen (mild stringency): GFP-Trap magnetic agarose on whole-cell lysate of U2OS stably expressing GFP-iso6, lysate treated with turbonuclease, 2 h at 4 C; LC-MS/MS; SAINTexpress against 2 GFP-free U2OS controls, <1% FDR and fold change >1.5.

B1: PRPF3 (protein, UniProt O43395 1-683)
chain: MALSKRELDELKPWIEKTVKRVLGFSEPTVVTAALNCVGKGMDKKKAADHLKPFLDDSTLRFVDKLFEAVEEGRSSRHSKSSSDRSRKRELKEVFGDDSEISKESSGVKKRRIPRFEEVEEEPEVIPGPPSESPGMLTKLQIKQMMEAATRQIEERKKQLSFISPPTPQPKTPSSSQPERLPIGNTIQPSQAATFMNDAIEKARKAAELQARIQAQLALKPGLIGNANMVGLANLHAMGIAPPKVELKDQTKPTPLILDEQGRTVDATGKEIELTHRMPTLKANIRAVKREQFKQQLKEKPSEDMESNTFFDPRVSIAPSQRQRRTFKFHDKGKFEKIAQRLRTKAQLEKLQAEISQAARKTGIHTSTRLALIAPKKELKEGDIPEIEWWDSYIIPNGFDLTEENPKREDYFGITNLVEHPAQLNPPVDNDTPVTLGVYLTKKEQKKLRRQTRREAQKELQEKVRLGLMPPPEPKVRISNLMRVLGTEAVQDPTKVEAHVRAQMAKRQKAHEEANAARKLTAEQRKVKKIKKLKEDISQGVHISVYRVRNLSNPAKKFKIEANAGQLYLTGVVVLHKDVNVVVVEGGPKAQKKFKRLMLHRIKWDEQTSNTKGDDDEESDEEAVKKTNKCVLVWEGTAKDRSFGEMKFKQCPTENMAREHFKKHGAEHYWDLALSESVLESTD
As for B1, the binding result is recorded as “binds”.

B2: PRPF6 (protein, UniProt O94906 1-941)
chain: MNKKKKPFLGMPAPLGYVPGLGRGATGFTTRSDIGPARDANDPVDDRHAPPGKRTVGDQMKKNQAADDDDEDLNDTNYDEFNGYAGSLFSSGPYEKDDEEADAIYAALDKRMDERRKERREQREKEEIEKYRMERPKIQQQFSDLKRKLAEVTEEEWLSIPEVGDARNKRQRNPRYEKLTPVPDSFFAKHLQTGENHTSVDPRQTQFGGLNTPYPGGLNTPYPGGMTPGLMTPGTGELDMRKIGQARNTLMDMRLSQVSDSVSGQTVVDPKGYLTDLNSMIPTHGGDINDIKKARLLLKSVRETNPHHPPAWIASARLEEVTGKLQVARNLIMKGTEMCPKSEDVWLEAARLQPGDTAKAVVAQAVRHLPQSVRIYIRAAELETDIRAKKRVLRKALEHVPNSVRLWKAAVELEEPEDARIMLSRAVECCPTSVELWLALARLETYENARKVLNKARENIPTDRHIWITAAKLEEANGNTQMVEKIIDRAITSLRANGVEINREQWIQDAEECDRAGSVATCQAVMRAVIGIGIEEEDRKHTWMEDADSCVAHNALECARAIYAYALQVFPSKKSVWLRAAYFEKNHGTRESLEALLQRAVAHCPKAEVLWLMGAKSKWLAGDVPAARSILALAFQANPNSEEIWLAAVKLESENDEYERARRLLAKARSSAPTARVFMKSVKLEWVQDNIRAAQDLCEEALRHYEDFPKLWMMKGQIEEQKEMMEKAREAYNQGLKKCPHSTPLWLLLSRLEEKIGQLTRARAILEKSRLKNPKNPGLWLESVRLEYRAGLKNIANTLMAKALQECPNSGILWSEAIFLEARPQRRTKSVDALKKCEHDPHVLLAVAKLFWSQRKITKAREWFHRTVKIDSDLGDAWAFFYKFELQHGTEEQQEEVRKRCESAEPRHGELWCAVSKDIANWQKKIGDILRLVAGRIKNTF
On to B2, for which the binding entry is listed as “binds”.

B3: CEBPZ (protein, UniProt Q03701 1-1054)
chain: MAAVKEPLEFHAKRPWRPEEAVEDPDEEDEDNTSEAENGFSLEEVLRLGGTKQDYLMLATLDENEEVIDGGKKGAIDDLQQGELEAFIQNLNLAKYTKASLVEEDEPAEKENSSKKEVKIPKINNKNTAESQRTSVNKVKNKNRPEPHSDENGSTTPKVKKDKQNIFEFFERQTLLLRPGGKWYDLEYSNEYSLKPQPQDVVSKYKTLAQKLYQHEINLFKSKTNSQKGASSTWMKAIVSSGTLGDRMAAMILLIQDDAVHTLQFVETLVNLVKKKGSKQQCLMALDTFKELLITDLLPDNRKLRIFSQRPFDKLEQLSSGNKDSRDRRLILWYFEHQLKHLVAEFVQVLETLSHDTLVTTKTRALTVAHELLCNKPEEEKALLVQVVNKLGDPQNRIATKASHLLETLLCKHPNMKGVVSGEVERLLFRSNISSKAQYYAICFLNQMALSHEESELANKLITVYFCFFRTCVKKKDVESKMLSALLTGVNRAYPYSQTGDDKVREQIDTLFKVLHIVNFNTSVQALMLLFQVMNSQQTISDRYYTALYRKMLDPGLMTCSKQAMFLNLVYKSLKADIVLRRVKAFVKRLLQVTCQQMPPFICGALYLVSEILKAKPGLRSQLDDHPESDDEENFIDANDDEDMEKFTDADKETEIVKKLETEETVPETDVETKKPEVASWVHFDNLKGGKQLNKYDPFSRNPLFCGAENTSLWELKKLSVHFHPSVALFAKTILQGNYIQYSGDPLQDFTLMRFLDRFVYRNPKPHKGKENTDSVVMQPKRKHFIKDIRHLPVNSKEFLAKEESQIPVDEVFFHRYYKKVAVKEKQKRDADEESIEDVDDEEFEELIDTFEDDNCFSSGKDDMDFAGNVKKRTKGAKDNTLDEDSEGSDDELGNLDDDEVSLGSMDDEEFAEVDEDGGTFMDVLDDESESVPELEVHSKVSTKKSKRKGTDDFDFAGSFQGPRKKKRNLNDSSLFVSAEEFGHLLDENMGSKFDNIGMNAMANKDNASLKQLRWEAERDDWLHNRDAKSIIKKKKHFKKKRIKTTQKTKKQRK
Regarding B3, the binding result was “binds”.

B4: PPP1R10 (protein, UniProt Q96QC0 1-940)
chain: MGSGPIDPKELLKGLDSFLNRDGEVKSVDGISKIFSLMKEARKMVSRCTYLNILLQTRSPEILVKFIDVGGYKLLNNWLTYSKTTNNIPLLQQILLTLQHLPLTVDHLKQNNTAKLVKQLSKSSEDEELRKLASVLVSDWMAVIRSQSSTQPAEKDKKKRKDEGKSRTTLPERPLTEVKAETRAEEAPEKKREKPKSLRTTAPSHAKFRSTGLELETPSLVPVKKNASTVVVSDKYNLKPIPLKRQSNVAAPGDATPPAEKKYKPLNTTPNATKEIKVKIIPPQPMEGLGFLDALNSAPVPGIKIKKKKKVLSPTAAKPSPFEGKTSTEPSTAKPSSPEPAPPSEAMDADRPGTPVPPVEVPELMDTASLEPGALDAKPVESPGDPNQLTRKGRKRKSVTWPEEGKLREYFYFELDETERVNVNKIKDFGEAAKREILSDRHAFETARRLSHDNMEEKVPWVCPRPLVLPSPLVTPGSNSQERYIQAEREKGILQELFLNKESPHEPDPEPYEPIPPKLIPLDEECSMDETPYVETLEPGGSGGSPDGAGGSKLPPVLANLMGSMGAGKGPQGPGGGGINVQEILTSIMGSPNSHPSEELLKQPDYSDKIKQMLVPHGLLGPGPIANGFPPGGPGGPKGMQHFPPGPGGPMPGPHGGPGGPVGPRLLGPPPPPRGGDPFWDGPGDPMRGGPMRGGPGPGPGPYHRGRGGRGGNEPPPPPPPFRGARGGRSGGGPPNGRGGPGGGMVGGGGHRPHEGPGGGMGNSSGHRPHEGPGGGMGSGHRPHEGPGGSMGGGGGHRPHEGPGGGISGGSGHRPHEGPGGGMGAGGGHRPHEGPGGSMGGSGGHRPHEGPGHGGPHGHRPHDVPGHRGHDHRGPPPHEHRGHDGPGHGGGGHRGHDGGHSHGGDMSNRPVCRHFMMKGNCRYENNCAFYHPGVNGPPLP
B4: the binding entry is “binds”.

B5: UTP14a (protein, UniProt Q9BVJ6 1-771)
chain: MTANRLAESLLALSQQEELADLPKDYLLSESEDEGDNDGERKHQKLLEAISSLDGKNRRKLAERSEASLKVSEFNVSSEGSGEKLVLADLLEPVKTSSSLATVKKQLSRVKSKKTVELPLNKEEIERIHREVAFNKTAQVLSKWDPVVLKNRQAEQLVFPLEKEEPAIAPIEHVLSGWKARTPLEQEIFNLLHKNKQPVTDPLLTPVEKASLRAMSLEEAKMRRAELQRARALQSYYEAKARREKKIKSKKYHKVVKKGKAKKALKEFEQLRKVNPAAALEELEKIEKARMMERMSLKHQNSGKWAKSKAIMAKYDLEARQAMQEQLSKNKELTQKLQVASESEEEEGGTEDVEELLVPDVVNEVQMNADGPNPWMLRSCTSDTKEAATQEDPEQLPELEAHGVSESEGEERPVAEEEILLREFEERRSLRKRSELSQDAEPAGSQETKDSGSQEVLSELRVLSQKLKENHQSRKQKASSEGTIPQVQREEPAPEEEEPLLLQRPERVQTLEELEELGKEECFQNKELPRPVLEGQQSERTPNNRPDAPKEKKKKEQMIDLQNLLTTQSPSVKSLAVPTIEELEDEEERNHRQMIKEAFAGDDVIRDFLKEKREAVEASKPKDVDLTLPGWGEWGGVGLKPSAKKRRRFLIKAPEGPPRKDKNLPNVIINEKRNIHAAAHQVRVLPYPFTHHWQFERTIQTPIGSTWNTQRAFQKLTTPKVVTKPGHIINPIKAEDVGYRSSSRSDLSVIQRNPKRITTRHKKQLKKCSVD
Take B5: the binding entry is “binds”.
